{"source": "patent US20100003740A1", "about": "“CHEMICALLY DEFINED CULTURE MEDIUM FOR NEISSERIA” (priority 2006, published 2010)", "system": "N. gonorrhoeae", "assay": "MIC determination by macrobroth dilution in the medium compared with E-test strips on chocolate agar (Example 5, FIG. 6)", "assay_type": "cell-based", "details": "8 strains of N. gonorrhoeae; susceptible, intermediate or resistant by published breakpoints"}
{"smiles": "O=C(O)c1cn(C2CC2)c2cc(N3CCNCC3)c(F)cc2c1=O", "note": "[ciprofloxacin]", "values": [{"measurement": "percentage of strains allocated to same susceptibility category by both methods", "value": 100, "unit": "percentage"}]}
